# Laboratory results published in PubChem BioAssay AID540256 (National Center for Advancing Translational Sciences (NCATS), 2011).
# Hit rate of the full screen: of about 300,000 compounds, about 3,700 (1.2%) were called active. This list was built around the results that the source calls inconclusive (neither active nor inactive); the mix of calls is not that of the screen. Calls come from the whole dose curve; tested in HEK293 cells. A potency beside an inconclusive call is a rough fit, not a confirmed value.
# Assay: qHTS for Inhibitors of binding or entry into cells for Lassa Virus; note: nearly all actives have a fitted effect of over 50% in size
# Conditions: Lassa virus pseudotype entry inhibition, cell reporter; activity change, negative = inhibition: at 37.9 µM (top of the series) unless noted
# % is set by controls: 0 for no effect and ±100 for the full control effect; potency is the fitted concentration of half-maximal effect.
SMILES,"activity change, negative = inhibition",Potency
CCOC(=O)/C(=C\c1ccc([N+](=O)[O-])o1)NC(=O)c1ccccc1,inactive: -12.2%,
Cc1ccc(OCc2nc(-c3cccs3)no2)c([N+](=O)[O-])c1,,"inconclusive: 12.6 µM [inhibitor, single point]"
Cc1ccc(-c2cc(C(=O)O)n[nH]2)o1,,"inconclusive: 13 µM [inhibitor, partial curve, poor fit]"
Cc1cccc(C)c1NC(=S)NC(C)CCc1ccccc1 (centres undefined),,"inconclusive: 31.6 µM [inhibitor, single point]"
N/C(=N\OC(=O)C1CCCCC1)c1ccc(Br)cc1,,"inconclusive: 6.31 µM [activator, full curve, poor fit]"
CCN(CC)CCn1c2ccccc2c2nc3ccc([N+](=O)[O-])cc3cc21,,"inconclusive: 0.631 µM [inhibitor, full curve, poor fit]"
CCCCCCn1c(N2CCN(c3ccccc3)CC2)nc2c1c(=O)[nH]c(=O)n2C,,"inconclusive: 3.16 µM [inhibitor, single point]"
CCN(CC)c1ccc(NC(=O)c2ccc3c(c2)OCO3)cc1,inactive: -11.3% [at 46.1 µM],
COc1ccc([C@]23Cc4ccccc4[C@H](O2)c2c(cc(C)n(Cc4ccccc4)c2=O)O3)cc1,,"inconclusive: 0.299 µM [inhibitor, partial curve, poor fit]"
CC1(C)Cc2c(C#N)c(SCC(=O)c3ccccc3)nc(N3CCOCC3)c2CO1,,"inconclusive: 35.5 µM [inhibitor, partial curve, poor fit]"
CCCNC(=O)CCNS(=O)(=O)c1ccc2c(c1)c(=O)n(C)c(=O)n2C,inactive: -1.69% [at 46.1 µM],
Fc1cccc(/C=N/Nc2cc(N3CCOCC3)ncn2)c1,,"inconclusive: 1.26 µM [activator, single point]"
Cc1ccc(Nc2nc(N)nc(CN3CCN(C(=O)c4ccco4)CC3)n2)cc1Cl,inactive: -17%,
CCCCOc1ccc(-c2[nH]ncc2C=O)cc1,inactive: 19.4%,
Cc1ccccc1N1C(=O)N(c2cccc(C(F)(F)F)c2)C2CS(=O)(=O)CC21 (centres undefined),,"inconclusive: 0.259 µM [activator, full curve]"
CCCCC12CN3CCN(CC(C3)/C1=N\NC(=O)c1ccccc1N)C2,,"inconclusive: 0.891 µM [activator, full curve, poor fit]"
Cc1ccc(OCCOCCN2CCCCC2)c([N+](=O)[O-])c1,inactive: 11.6%,
CCc1nnc(NC(=O)CCc2ccc(C)o2)s1,inactive: 6.12%,
CCc1nc2ccccc2c(C(=O)OCc2nc3ccccc3c(=O)[nH]2)c1C,,"inconclusive: 12.6 µM [inhibitor, partial curve, poor fit]"

# Quoted from the listing.
# For Potency, Cc1ccc(-c2cc(C(=O)O)n[nH]2)o1 is listed with inconclusive: 13 µM [inhibitor, partial curve, poor fit]
# For Potency, COc1ccc([C@]23Cc4ccccc4[C@H](O2)c2c(cc(C)n(Cc4ccccc4)c2=O)O3)cc1 is listed with inconclusive: 0.299 µM [inhibitor, partial curve, poor fit]
